Test results taken from publication PMC5897396.
No constants are given. Whether binding was seen depends on the method and setting. In cells and extracts the contact can be indirect. A yes stands for co-enrichment or nearness to the bait. Other partners may have been found.

Amino acid sequences for entries named in this document (tags omitted). Residues count along the entry.
UniProt P23471, residues 25-2315: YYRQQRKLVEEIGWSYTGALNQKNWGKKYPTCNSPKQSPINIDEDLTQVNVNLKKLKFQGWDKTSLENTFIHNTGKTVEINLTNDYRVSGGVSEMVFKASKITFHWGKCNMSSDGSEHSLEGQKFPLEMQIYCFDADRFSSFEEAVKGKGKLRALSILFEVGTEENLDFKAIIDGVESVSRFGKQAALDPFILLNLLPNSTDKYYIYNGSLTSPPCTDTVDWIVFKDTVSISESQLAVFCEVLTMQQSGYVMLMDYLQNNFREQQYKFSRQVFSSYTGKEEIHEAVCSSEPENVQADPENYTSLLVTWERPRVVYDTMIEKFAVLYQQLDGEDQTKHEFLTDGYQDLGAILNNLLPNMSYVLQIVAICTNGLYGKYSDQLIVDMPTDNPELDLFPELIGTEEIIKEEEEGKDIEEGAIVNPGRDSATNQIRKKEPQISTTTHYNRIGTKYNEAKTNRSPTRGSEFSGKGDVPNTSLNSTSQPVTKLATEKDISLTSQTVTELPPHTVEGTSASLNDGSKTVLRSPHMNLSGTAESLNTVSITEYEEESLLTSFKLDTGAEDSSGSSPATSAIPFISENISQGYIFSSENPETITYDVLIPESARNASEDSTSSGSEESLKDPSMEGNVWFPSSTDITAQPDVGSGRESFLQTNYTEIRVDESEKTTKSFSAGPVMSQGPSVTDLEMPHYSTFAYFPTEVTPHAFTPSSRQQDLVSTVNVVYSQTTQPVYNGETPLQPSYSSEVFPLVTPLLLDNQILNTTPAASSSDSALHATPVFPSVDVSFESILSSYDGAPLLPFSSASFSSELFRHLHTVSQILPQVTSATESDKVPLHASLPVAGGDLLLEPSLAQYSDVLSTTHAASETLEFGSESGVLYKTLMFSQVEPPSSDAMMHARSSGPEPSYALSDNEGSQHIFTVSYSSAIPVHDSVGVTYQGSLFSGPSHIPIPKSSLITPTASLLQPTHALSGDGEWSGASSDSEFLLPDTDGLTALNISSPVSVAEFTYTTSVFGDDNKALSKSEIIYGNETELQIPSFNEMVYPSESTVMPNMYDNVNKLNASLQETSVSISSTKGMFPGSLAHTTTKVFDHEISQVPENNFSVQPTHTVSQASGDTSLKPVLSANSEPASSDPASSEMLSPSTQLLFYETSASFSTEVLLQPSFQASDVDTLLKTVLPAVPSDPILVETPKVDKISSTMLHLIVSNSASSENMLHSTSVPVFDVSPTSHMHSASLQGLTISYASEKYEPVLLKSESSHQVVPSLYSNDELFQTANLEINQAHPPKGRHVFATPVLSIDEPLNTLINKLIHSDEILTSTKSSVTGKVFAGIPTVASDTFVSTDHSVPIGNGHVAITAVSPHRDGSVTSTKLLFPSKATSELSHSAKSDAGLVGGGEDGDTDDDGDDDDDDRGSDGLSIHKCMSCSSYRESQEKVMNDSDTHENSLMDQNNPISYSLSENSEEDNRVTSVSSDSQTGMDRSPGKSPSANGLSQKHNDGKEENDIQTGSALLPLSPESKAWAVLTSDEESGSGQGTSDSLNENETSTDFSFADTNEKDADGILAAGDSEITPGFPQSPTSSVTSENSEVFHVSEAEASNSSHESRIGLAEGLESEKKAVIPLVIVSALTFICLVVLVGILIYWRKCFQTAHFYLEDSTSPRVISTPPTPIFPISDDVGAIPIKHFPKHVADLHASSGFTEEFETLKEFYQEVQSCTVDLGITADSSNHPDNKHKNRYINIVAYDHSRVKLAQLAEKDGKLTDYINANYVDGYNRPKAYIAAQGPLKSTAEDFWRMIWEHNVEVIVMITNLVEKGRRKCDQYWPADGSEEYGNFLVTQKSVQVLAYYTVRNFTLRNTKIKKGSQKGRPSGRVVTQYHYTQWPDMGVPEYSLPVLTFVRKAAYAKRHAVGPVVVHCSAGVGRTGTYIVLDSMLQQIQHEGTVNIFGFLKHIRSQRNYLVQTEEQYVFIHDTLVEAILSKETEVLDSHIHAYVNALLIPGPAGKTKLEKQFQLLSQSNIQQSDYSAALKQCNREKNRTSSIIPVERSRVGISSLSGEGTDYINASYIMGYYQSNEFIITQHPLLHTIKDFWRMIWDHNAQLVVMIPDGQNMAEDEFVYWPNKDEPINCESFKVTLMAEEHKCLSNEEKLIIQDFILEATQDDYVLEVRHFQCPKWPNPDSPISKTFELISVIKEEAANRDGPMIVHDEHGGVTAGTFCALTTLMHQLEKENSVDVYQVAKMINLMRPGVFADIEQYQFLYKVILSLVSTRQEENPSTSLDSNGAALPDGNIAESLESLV
UniProt Q15078: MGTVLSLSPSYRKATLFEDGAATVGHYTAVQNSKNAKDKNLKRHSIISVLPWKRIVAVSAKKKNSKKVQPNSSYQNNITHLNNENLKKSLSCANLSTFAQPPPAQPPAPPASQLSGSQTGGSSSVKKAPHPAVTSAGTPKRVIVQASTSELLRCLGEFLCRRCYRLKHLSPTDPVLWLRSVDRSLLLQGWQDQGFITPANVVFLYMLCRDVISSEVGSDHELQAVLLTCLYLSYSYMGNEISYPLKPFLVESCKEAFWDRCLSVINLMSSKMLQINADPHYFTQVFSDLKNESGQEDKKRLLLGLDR

Target: receptor protein tyrosine phosphatase beta/zeta (human (endogenous in HUVEC)) (UniProt P23471)
Experiment: affinity purification with mass spectrometry; 3 mg total protein of HUVEC lysate immunoprecipitated with an anti-RPTPβ/ζ antibody; SDS-PAGE, silver stain, in-gel trypsin digestion, MALDI-TOF peptide mass fingerprint

- binding: binds
Substance: cyclin-dependent kinase 5 activator 1, p35 (from UniProt Q15078 1-307)
